Experimental data published in patent publication US20110207751A1, “HETEROCYCLIC COMPOUNDS AND USES AS ANTICANCER AGENTS” (priority 2010, published 2011).

How the values were obtained:
[1] = system: KB cells (parental cervical cancer cell line); test: Inhibition of cell proliferation, xCelligence cell index; type: cell-based; details: Homo sapiens, 72 h, read-out: calculated IC50
[2] = system: KB200 cells over-expressing multiple drug resistant (MDR) gene; test: as above; type: cell-based; details: Homo sapiens, 72 h, read-out: calculated IC50

COc1cc2c(c(OC)c1OC)-c1ccc(OC)c(=O)cc1[C@@H](NC(C)=O)CC2 [colchicine]
IC50 [1]: 0.0082 µM | IC50 [2]: 0.116 µM
